Results from the supplement of paper PMC10849652.
This is one part of the list. Residues, ends and D or L forms follow the SMILES beside them. *: point of attachment. Cbz = O=C(OCc1ccccc1)*

Sequences of proteins named here, by UniProt entry; tags and fusion partners are left off. A change or cut given only in a name is not applied to a line headed by its entry.
UniProt Q13885, whole entry, looked up: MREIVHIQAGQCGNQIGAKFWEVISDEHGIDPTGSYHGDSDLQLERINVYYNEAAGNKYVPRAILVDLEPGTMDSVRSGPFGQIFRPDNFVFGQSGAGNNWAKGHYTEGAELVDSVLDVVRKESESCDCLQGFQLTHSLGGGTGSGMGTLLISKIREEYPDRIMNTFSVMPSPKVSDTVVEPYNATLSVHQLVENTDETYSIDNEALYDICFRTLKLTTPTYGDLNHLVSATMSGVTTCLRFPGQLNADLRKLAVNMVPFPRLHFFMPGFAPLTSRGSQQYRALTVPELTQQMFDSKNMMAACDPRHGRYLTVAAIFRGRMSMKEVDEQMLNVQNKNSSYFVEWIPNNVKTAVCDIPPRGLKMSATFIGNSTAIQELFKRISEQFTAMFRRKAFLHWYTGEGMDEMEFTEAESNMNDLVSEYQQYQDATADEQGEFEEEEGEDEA
UniProt P49459, whole entry, looked up: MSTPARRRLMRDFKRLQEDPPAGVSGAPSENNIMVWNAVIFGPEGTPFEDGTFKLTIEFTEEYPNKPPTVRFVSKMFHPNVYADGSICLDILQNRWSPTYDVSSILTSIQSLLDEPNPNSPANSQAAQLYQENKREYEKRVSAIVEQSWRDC
UniProt Q8N5M4: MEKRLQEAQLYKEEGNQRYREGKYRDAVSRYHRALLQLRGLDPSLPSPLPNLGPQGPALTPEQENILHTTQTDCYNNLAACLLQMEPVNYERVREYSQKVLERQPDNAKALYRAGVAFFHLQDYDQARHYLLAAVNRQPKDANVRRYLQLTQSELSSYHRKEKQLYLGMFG
UniProt Q9NPD8: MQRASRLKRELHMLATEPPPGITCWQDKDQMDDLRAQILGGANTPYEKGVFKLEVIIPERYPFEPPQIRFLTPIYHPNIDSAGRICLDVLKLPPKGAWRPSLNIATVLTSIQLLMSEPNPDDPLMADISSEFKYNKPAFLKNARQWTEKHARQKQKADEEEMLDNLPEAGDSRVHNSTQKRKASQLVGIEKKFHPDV
UniProt P30536, whole entry, looked up: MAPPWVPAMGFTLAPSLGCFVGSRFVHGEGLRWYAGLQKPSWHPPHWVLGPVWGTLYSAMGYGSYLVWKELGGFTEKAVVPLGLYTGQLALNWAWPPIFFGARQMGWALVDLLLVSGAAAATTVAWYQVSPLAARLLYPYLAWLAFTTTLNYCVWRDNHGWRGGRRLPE
UniProt Q6DKK2: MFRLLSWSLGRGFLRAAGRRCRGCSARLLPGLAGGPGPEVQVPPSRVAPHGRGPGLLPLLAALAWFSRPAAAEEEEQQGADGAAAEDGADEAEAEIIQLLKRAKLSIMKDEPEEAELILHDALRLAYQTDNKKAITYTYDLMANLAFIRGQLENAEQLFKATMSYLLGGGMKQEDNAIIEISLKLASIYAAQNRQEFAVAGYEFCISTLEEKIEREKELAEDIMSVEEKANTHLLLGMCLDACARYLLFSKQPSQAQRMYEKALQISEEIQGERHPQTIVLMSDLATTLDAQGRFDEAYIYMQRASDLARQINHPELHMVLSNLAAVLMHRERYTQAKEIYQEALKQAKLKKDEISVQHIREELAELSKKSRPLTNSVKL
UniProt P63146, whole entry, looked up: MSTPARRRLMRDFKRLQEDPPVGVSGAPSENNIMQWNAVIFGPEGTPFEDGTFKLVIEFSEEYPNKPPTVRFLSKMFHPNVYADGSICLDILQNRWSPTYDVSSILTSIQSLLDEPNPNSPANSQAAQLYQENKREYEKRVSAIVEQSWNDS
UniProt Q9UBT2: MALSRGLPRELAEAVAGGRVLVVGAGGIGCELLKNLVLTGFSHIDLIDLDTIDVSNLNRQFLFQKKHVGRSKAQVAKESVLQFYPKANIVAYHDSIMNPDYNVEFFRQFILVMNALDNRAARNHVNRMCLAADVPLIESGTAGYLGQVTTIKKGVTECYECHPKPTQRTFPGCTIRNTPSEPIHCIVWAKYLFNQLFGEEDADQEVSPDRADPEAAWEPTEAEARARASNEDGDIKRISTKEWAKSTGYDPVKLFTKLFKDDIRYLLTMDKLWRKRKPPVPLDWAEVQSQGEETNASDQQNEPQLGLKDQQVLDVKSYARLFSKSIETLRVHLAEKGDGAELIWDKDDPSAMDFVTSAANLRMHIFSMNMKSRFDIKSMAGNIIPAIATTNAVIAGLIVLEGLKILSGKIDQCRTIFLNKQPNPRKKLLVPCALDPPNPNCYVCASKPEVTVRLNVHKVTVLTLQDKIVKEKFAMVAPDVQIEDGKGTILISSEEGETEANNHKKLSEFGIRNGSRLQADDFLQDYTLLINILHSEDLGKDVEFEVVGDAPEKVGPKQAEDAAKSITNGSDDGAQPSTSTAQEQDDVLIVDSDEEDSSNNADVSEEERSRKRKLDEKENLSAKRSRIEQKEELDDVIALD
UniProt Q9BUF5, whole entry, looked up: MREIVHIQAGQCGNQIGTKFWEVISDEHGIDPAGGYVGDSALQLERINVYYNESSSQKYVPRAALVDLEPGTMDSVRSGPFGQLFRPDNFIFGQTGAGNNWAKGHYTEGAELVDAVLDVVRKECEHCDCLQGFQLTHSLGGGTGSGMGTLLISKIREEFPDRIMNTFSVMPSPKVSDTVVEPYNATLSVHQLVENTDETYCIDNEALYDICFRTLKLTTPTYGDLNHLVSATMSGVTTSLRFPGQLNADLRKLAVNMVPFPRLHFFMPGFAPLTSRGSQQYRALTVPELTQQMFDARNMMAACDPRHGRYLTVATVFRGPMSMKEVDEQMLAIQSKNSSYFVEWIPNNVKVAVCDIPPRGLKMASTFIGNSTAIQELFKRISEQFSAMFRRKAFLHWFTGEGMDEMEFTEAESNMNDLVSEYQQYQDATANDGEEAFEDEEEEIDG
UniProt Q5T6F2: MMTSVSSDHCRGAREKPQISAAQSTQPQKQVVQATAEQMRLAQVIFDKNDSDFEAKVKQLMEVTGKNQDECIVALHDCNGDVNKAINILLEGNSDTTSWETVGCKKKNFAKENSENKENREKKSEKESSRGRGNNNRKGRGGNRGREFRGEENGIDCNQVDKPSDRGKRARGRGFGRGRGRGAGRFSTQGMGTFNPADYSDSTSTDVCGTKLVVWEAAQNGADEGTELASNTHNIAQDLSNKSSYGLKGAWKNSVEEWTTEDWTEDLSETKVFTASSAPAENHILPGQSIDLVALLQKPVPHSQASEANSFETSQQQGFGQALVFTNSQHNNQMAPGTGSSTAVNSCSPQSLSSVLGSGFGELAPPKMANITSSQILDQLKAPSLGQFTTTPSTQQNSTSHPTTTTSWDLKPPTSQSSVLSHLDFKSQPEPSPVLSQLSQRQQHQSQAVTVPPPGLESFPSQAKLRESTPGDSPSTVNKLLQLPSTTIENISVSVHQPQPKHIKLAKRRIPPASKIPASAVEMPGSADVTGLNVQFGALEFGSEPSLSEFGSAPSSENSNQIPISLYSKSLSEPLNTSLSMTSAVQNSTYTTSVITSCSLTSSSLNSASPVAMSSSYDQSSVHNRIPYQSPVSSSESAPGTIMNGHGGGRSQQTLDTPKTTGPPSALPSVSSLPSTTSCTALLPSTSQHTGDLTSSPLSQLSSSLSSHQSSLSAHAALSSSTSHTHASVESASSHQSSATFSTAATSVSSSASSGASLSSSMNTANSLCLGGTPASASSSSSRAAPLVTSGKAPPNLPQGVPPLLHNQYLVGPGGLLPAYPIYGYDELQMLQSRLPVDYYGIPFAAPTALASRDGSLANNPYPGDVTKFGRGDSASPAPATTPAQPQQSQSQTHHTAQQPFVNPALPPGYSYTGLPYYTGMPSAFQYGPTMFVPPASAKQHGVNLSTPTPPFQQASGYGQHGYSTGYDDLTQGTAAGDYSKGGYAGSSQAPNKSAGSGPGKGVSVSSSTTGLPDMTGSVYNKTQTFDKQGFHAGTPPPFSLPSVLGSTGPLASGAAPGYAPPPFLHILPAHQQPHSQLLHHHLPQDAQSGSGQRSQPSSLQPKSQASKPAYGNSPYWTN
UniProt Q99598: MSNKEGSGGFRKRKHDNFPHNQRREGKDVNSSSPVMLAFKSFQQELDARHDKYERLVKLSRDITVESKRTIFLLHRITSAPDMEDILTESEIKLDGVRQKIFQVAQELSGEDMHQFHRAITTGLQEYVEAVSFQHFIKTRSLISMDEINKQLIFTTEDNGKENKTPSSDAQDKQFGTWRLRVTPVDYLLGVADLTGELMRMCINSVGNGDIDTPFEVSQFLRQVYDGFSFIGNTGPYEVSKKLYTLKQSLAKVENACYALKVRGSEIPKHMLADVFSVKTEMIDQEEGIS
UniProt O95881: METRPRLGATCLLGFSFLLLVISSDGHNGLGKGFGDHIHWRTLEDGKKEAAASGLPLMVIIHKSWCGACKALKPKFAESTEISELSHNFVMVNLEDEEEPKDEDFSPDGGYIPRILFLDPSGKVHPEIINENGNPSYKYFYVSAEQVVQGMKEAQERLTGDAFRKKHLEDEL
UniProt Q15631: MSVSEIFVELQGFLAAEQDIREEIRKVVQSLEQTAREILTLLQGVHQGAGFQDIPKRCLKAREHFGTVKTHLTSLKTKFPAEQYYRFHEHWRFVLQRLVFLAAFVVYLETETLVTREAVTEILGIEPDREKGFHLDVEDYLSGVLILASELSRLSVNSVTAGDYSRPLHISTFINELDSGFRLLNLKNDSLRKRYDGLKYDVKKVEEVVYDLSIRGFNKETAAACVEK
UniProt P10599: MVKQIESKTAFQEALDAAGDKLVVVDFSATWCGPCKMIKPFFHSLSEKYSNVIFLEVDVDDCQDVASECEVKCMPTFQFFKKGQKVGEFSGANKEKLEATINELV
UniProt P83876: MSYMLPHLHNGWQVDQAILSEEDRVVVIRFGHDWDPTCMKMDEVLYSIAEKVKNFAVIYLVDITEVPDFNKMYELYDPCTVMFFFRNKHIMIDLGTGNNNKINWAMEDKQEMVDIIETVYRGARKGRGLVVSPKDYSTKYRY

Columns and labels:
Assay in all cases: log2 fold change, soluble protein after heating vs DMSO (PISA); higher = thermal stabilisation; K562 cells, 10 uM, 30 min; active = over 0.2 and 3.5 SD of the protein, either way, in both replicates (recomputed)
IRAK-1-4 Inhibitor I = compound: C1COCCN1CCN2C3=CC=CC=C3N=C2NC(=O)C4=CC(=CC=C4)[N+](=O)[O-] [IRAK-1-4 Inhibitor I]
In short: (§1)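 Thermal stability values are relative to control samples and come from duplicates. They are expressed as log2 fold changes. For measurement, K562 cells (2×10^6 cells/mL) received 10 μM compound for 30 min, and aliquots were heated for 3 min over 48°C-58°C, pooled, and extracted at 4°C in PBS with 0.5% NP-40. Soluble protein, the supernatant after 21,000xg for 90 min, was quantified by TMTpro 16plex LC-MS/MS with equalised channel sums.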

ibrutinib = compound: C=CC(=O)N1CCC[C@@H](n2nc(-c3ccc(Oc4ccccc4)cc3)c3c(N)ncnc32)C1 [ibrutinib]
In short: as §1

[1] = compound: CC(=O)c1cnc2ccc(-c3cc(Cl)c(O)c(Cl)c3)nc2c1N[C@H]1CC[C@H](CN(C)C)CC1
In short: as §1

ralimetinib = compound: CC(C)(C)Cn1c(N)nc2ccc(-c3[nH]c(C(C)(C)C)nc3-c3ccc(F)cc3)nc21 [ralimetinib]
In short: as §1

[2] = compound: CC(C)(O)CC(=O)NCCn1ccc2ncnc(Nc3ccc(Oc4cccc(C(F)(F)F)c4)c(Cl)c3)c21
In short: as §1

[3] = compound: CC(C)C1=C2N=C(C=C(N2N=C1)NCC3=CC=CC=C3)NCCCCCCN
In short: as §1

[4] = compound: CC(C)C[C@@H](C=O)NC(=O)[C@H](CC(C)C)NC(=O)[C@H](CC(C)C)NC(=O)OCc1ccccc1
In short: as §1

pinometostat = compound: CC(C)N(C[C@H]1O[C@@H](n2cnc3c(N)ncnc32)[C@H](O)[C@@H]1O)[C@H]1C[C@@H](CCc2nc3cc(C(C)(C)C)ccc3[nH]2)C1 [pinometostat]
In short: as §1

[5] = compound: CC1=C(C(CC(=O)N1)C2=CC=C(C=C2)C(F)(F)F)C(=O)NC3=C(C=C4C(=C3)C=NN4)F
In short: as §1

[6] = compound: CC1=C(C2=C(C=C1)C(=O)C3=CC=CC=C3N2CCCN)C
In short: as §1

[7] = compound: CC1=C(C=C(C=C1)NC(=O)C2=CC(=CC=C2)C(C)(C)C#N)NC3=CC4=C(C=C3)N=CN(C4=O)C
In short: as §1

[8] = compound: CC1=C(C=C(C=C1)NC(=O)C2=CC(=CC=C2)N(C)C)NC(=O)C3=CC=C(C=C3)O
In short: as §1

[9] = compound: CC1=CC=C(C=C1)SC2=C3C=C(SC3=CN=C2)C(=O)N
In short: as §1

[10] = compound: CC1=NC(=CC=C1)C2=C(N=C(N2)C(C)(C)C)C3=CC4=NC=CN=C4C=C3
In short: as §1

Nexturastat A = compound: CCCCN(Cc1ccc(C(=O)NO)cc1)C(=O)Nc1ccccc1 [Nexturastat A]
In short: as §1

vemurafenib = compound: CCCS(=O)(=O)Nc1ccc(F)c(C(=O)c2c[nH]c3ncc(-c4ccc(Cl)cc4)cc23)c1F [vemurafenib]
In short: as §1

[11] = compound: CCCS(=O)(=O)Nc1ccc(F)c(C(=O)c2c[nH]c3ncc(Cl)cc23)c1F
In short: as §1

[12] = compound: CCCc1cc(C)[nH]c(=O)c1CNC(=O)c1cc(-c2ccnc(N3CCN(C)CC3)c2)cc2c1cnn2C(C)C
In short: as §1

givinostat = compound: CCN(CC)Cc1ccc2cc(COC(=O)Nc3ccc(C(=O)NO)cc3)ccc2c1 [givinostat]
In short: as §1

barasertib = compound: CCN(CCCOc1ccc2c(Nc3cc(CC(=O)Nc4cccc(F)c4)[nH]n3)ncnc2c1)CCOP(=O)(O)O [barasertib]
In short: as §1

Measured: log2 fold change

TUBB2A (UniProt Q13885)
inactive: IRAK-1-4 Inhibitor I 0.049 | ibrutinib 0.024 | [1] 0.017 | ralimetinib -0.022 | [2] -0.054 | [3] 0.038 | [4] 0.011 | pinometostat -0.02 | [5] 0.054 | [6] 0 | [7] 0.024 | [8] 0.021 | [9] 0.024 | [10] 0.029 | Nexturastat A -0.048 | vemurafenib -0.067 | [11] -0.009 | [12] -0.027 | givinostat -0.038 | barasertib 0.001

UBE2A (UniProt P49459)
inactive: IRAK-1-4 Inhibitor I 0.003 | ibrutinib 0.02 | [1] 0.037 | ralimetinib -0.01 | [2] -0.041 | [3] 0.009 | [4] 0.009 | pinometostat 0.018 | [5] -0.023 | [6] 0.044 | [7] 0.012 | [8] 0 | [9] 0.031 | [10] -0.014 | Nexturastat A -0.03 | vemurafenib 0.061 | [11] 0.101 | [12] 0.042 | givinostat -0.007 | barasertib 0.003

TTC9C (UniProt Q8N5M4)
inactive: IRAK-1-4 Inhibitor I 0.041 | ibrutinib 0.031 | [1] -0.011 | ralimetinib 0.031 | [2] -0.06 | [3] -0.017 | [4] -0.032 | pinometostat -0.025 | [5] -0.013 | [6] 0.103 | [7] 0.018 | [8] -0.054 | [9] 0.024 | [10] 0.07 | Nexturastat A 0.012 | vemurafenib 0.131 | [11] 0.031 | [12] -0.001 | givinostat 0.053 | barasertib -0.039

UBE2T (UniProt Q9NPD8)
inactive: IRAK-1-4 Inhibitor I -0.036 | ibrutinib -0.025 | [1] 0.03 | ralimetinib 0.021 | [2] -0.094 | [3] -0.068 | [4] 0.045 | pinometostat -0.008 | [5] -0.032 | [6] 0.07 | [7] -0.015 | [8] -0.064 | [9] 0.075 | [10] 0 | Nexturastat A 0 | vemurafenib -0.016 | [11] 0.022 | [12] 0.032 | givinostat 0.089 | barasertib 0.068

TSPO (UniProt P30536)
inactive: IRAK-1-4 Inhibitor I 0.009 | ibrutinib 0.001 | [1] -0.104 | ralimetinib -0.093 | [2] 0.012 | [3] 0.029 | [4] -0.074 | pinometostat 0.004 | [5] -0.038 | [6] 0.004 | [7] -0.008 | [8] 0 | [9] -0.052 | [10] -0.023 | Nexturastat A -0.078 | vemurafenib -0.069 | [11] 0.015 | [12] -0.23 | givinostat -0.027 | barasertib -0.022

TTC19 (UniProt Q6DKK2)
inactive: IRAK-1-4 Inhibitor I 0.051 | ibrutinib -0.014 | [1] 0.012 | ralimetinib -0.027 | [2] 0.037 | [3] -0.142 | [4] 0.007 | pinometostat -0.025 | [5] 0.017 | [6] 0.024 | [7] 0.002 | [8] -0.005 | [9] 0.053 | [10] 0.028 | Nexturastat A -0.05 | vemurafenib 0.022 | [11] 0.075 | [12] -0.045 | givinostat 0.028 | barasertib -0.001

UBE2B (UniProt P63146)
inactive: IRAK-1-4 Inhibitor I 0.028 | ibrutinib 0.064 | [1] 0.005 | ralimetinib -0.014 | [2] -0.026 | [3] -0.082 | [4] 0.008 | pinometostat 0.089 | [5] -0.069 | [6] 0.011 | [7] 0.07 | [8] -0.076 | [9] 0.053 | [10] 0.04 | Nexturastat A -0.022 | vemurafenib -0.04 | [11] 0.066 | [12] -0.038 | givinostat -0.115 | barasertib 0.039

UBA2 (UniProt Q9UBT2)
inactive: IRAK-1-4 Inhibitor I 0.012 | ibrutinib -0.026 | [1] 0.076 | ralimetinib -0.024 | [2] -0.031 | [3] 0.042 | [4] -0.04 | pinometostat -0.034 | [5] -0.044 | [6] -0.025 | [7] 0.067 | [8] -0.023 | [9] -0.011 | [10] 0.035 | Nexturastat A -0.063 | vemurafenib 0.026 | [11] 0.046 | [12] -0.036 | givinostat -0.034 | barasertib 0.025

Reprinted at random: 2 entries already listed
UBE2T (UniProt Q9NPD8)
inactive: IRAK-1-4 Inhibitor I -0.036 | ibrutinib -0.025 | [1] 0.03 | ralimetinib 0.021 | [2] -0.094 | [3] -0.068 | [4] 0.045 | pinometostat -0.008 | [5] -0.032 | [6] 0.07 | [7] -0.015 | [8] -0.064 | [9] 0.075 | [10] 0 | Nexturastat A 0 | vemurafenib -0.016 | [11] 0.022 | [12] 0.032 | givinostat 0.089 | barasertib 0.068

UBA2 (UniProt Q9UBT2)
inactive: IRAK-1-4 Inhibitor I 0.012 | ibrutinib -0.026 | [1] 0.076 | ralimetinib -0.024 | [2] -0.031 | [3] 0.042 | [4] -0.04 | pinometostat -0.034 | [5] -0.044 | [6] -0.025 | [7] 0.067 | [8] -0.023 | [9] -0.011 | [10] 0.035 | Nexturastat A -0.063 | vemurafenib 0.026 | [11] 0.046 | [12] -0.036 | givinostat -0.034 | barasertib 0.025

Further records follow:

TUBB6 (UniProt Q9BUF5)
inactive: IRAK-1-4 Inhibitor I 0.067 | ibrutinib 0.047 | [1] -0.022 | ralimetinib -0.032 | [2] -0.009 | [3] -0.012 | [4] 0.015 | pinometostat 0.002 | [5] 0.016 | [6] 0.051 | [7] -0.065 | [8] 0 | [9] 0.021 | [10] 0.005 | Nexturastat A -0.022 | vemurafenib -0.005 | [11] 0.015 | [12] -0.01 | givinostat -0.016 | barasertib 0.002

TUBB6 (UniProt K7ES63)
inactive: IRAK-1-4 Inhibitor I 0.029 | ibrutinib -0.069 | [1] -0.135 | ralimetinib 0.006 | [2] 0.116 | [3] 0.011 | [4] -0.004 | pinometostat -0.106 | [5] -0.004 | [6] -0.035 | [7] 0.015 | [8] 0.076 | [9] -0.046 | [10] -0.057 | Nexturastat A 0.071 | vemurafenib -0.208 | [11] -0.099 | [12] -0.172 | givinostat -0.079 | barasertib 0.043

UBAP2 (UniProt Q5T6F2)
inactive: IRAK-1-4 Inhibitor I 0.036 | ibrutinib 0.027 | [1] -0.001 | ralimetinib -0.044 | [2] 0.042 | [3] 0.016 | [4] 0.031 | pinometostat -0.013 | [5] -0.007 | [6] -0.042 | [7] -0.046 | [8] 0.009 | [9] 0.01 | [10] 0.013 | Nexturastat A -0.045 | vemurafenib -0.033 | [11] -0.014 | [12] -0.027 | givinostat 0.001 | barasertib 0.001

TSNAX (UniProt Q99598)
inactive: IRAK-1-4 Inhibitor I 0.048 | ibrutinib 0.04 | [1] 0.005 | ralimetinib -0.039 | [2] -0.033 | [3] 0.062 | [4] -0.009 | pinometostat -0.041 | [5] 0.018 | [6] 0.009 | [7] -0.019 | [8] -0.012 | [9] -0.01 | [10] 0.011 | Nexturastat A -0.004 | vemurafenib -0.011 | [11] 0.007 | [12] -0.027 | givinostat -0.037 | barasertib -0.009

TXNDC12 (UniProt O95881)
inactive: IRAK-1-4 Inhibitor I -0.01 | ibrutinib -0.018 | [1] -0.001 | ralimetinib 0.027 | [2] 0.011 | [3] 0.026 | [4] -0.017 | pinometostat -0.011 | [5] 0.007 | [6] 0.02 | [7] -0.119 | [8] 0.002 | [9] -0.113 | [10] -0.005 | Nexturastat A -0.048 | vemurafenib 0.047 | [11] -0.139 | [12] -0.061 | givinostat -0.026 | barasertib 0.002

TSN (UniProt Q15631)
inactive: IRAK-1-4 Inhibitor I 0.025 | ibrutinib 0.004 | [1] 0.01 | ralimetinib 0.023 | [2] -0.009 | [3] 0.059 | [4] -0.1 | pinometostat -0.074 | [5] 0.024 | [6] 0.034 | [7] 0.058 | [8] -0.02 | [9] 0.053 | [10] 0.032 | Nexturastat A -0.086 | vemurafenib 0.099 | [11] 0.054 | [12] 0.087 | givinostat -0.01 | barasertib 0.001

TXN (UniProt P10599)
inactive: IRAK-1-4 Inhibitor I 0.044 | ibrutinib -0.034 | [1] 0.006 | ralimetinib -0.044 | [2] 0.065 | [3] 0.14 | [4] 0.013 | pinometostat -0.031 | [5] 0.015 | [6] -0.06 | [7] 0.003 | [8] 0.009 | [9] -0.041 | [10] 0.015 | Nexturastat A -0.03 | vemurafenib 0.001 | [11] -0.054 | [12] 0.058 | givinostat -0.015 | barasertib 0.034

TXNL4A (UniProt P83876)
inactive: IRAK-1-4 Inhibitor I 0.032 | ibrutinib 0.024 | [1] -0.028 | ralimetinib -0.018 | [2] -0.074 | [3] -0.072 | [4] 0.011 | pinometostat 0.006 | [5] -0.004 | [6] -0.004 | [7] -0.047 | [8] -0.002 | [9] -0.04 | [10] 0.001 | Nexturastat A 0.027 | vemurafenib 0.019 | [11] -0.016 | [12] -0.055 | givinostat 0.009 | barasertib 0.005
